PubChem BioAssay AID504764 | Drosophila RNAi Screening Center | 2011
In all, the deposit lists about 22,000 reagents; shown is an unselected part of those that have a named target and a result. In the full data, 403 (1.9%) are marked active. 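Unnormalised raw counts per well; ratio z-scores behind the hit calls and whether each hit raises or lowers signal are not deposited.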 Reagents against one gene are numbered here. The record does not give: the amount of reagent.

Test: 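Genome-wide screen for regulators of Notch-driven gene expression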 (primary screen)
Cell system: Drosophila Kc167 cells
Reagents: long dsRNA against Drosophila genes
Timing: about 5 days (4 days dsRNA, then 24 h after transfection)
Treatment: transfection of constitutively active membrane-tethered Notch lacking the extracellular domain, read 24 h later
Read-out: 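Light from a Notch-responsive E(spl)m3 luciferase reporter under active Notch, with control-promoter and no-Notch reporter wells to normalise; raw counts from paired wells a and b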
Direction: induced reporter light, run 1, well a and induced reporter light, run 1, well b: higher = more light from the Notch target reporter with active Notch; control promoter light, run 1, well a and control promoter light, run 1, well b: higher = more light from the viral control promoter (cell number, transfection, viability); uninduced reporter light, run 1, well a: higher = more light from the Notch target reporter without active Notch
Hit rule: 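Wells with low control signal or poorly matching duplicates excluded; duplicates averaged; per source plate, z beyond ±2 for induced/control log2 ratio or beyond ±1.8 for induced/uninduced marks a hit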
Calls: active = modifier hit (raised or lowered Notch signal); inactive = not a hit

Rh3 (Rhodopsin 3) gave induced reporter light, run 1, well a = 2.02e5; induced reporter light, run 1, well b = 1.92e5; control promoter light, run 1, well a = 2.19e5; control promoter light, run 1, well b = 2.52e5; uninduced reporter light, run 1, well a = 15925; inactive.
Silencing of CG18853 resulted in: induced reporter light, run 1, well a = 2.04e5; induced reporter light, run 1, well b = 1.76e5; control promoter light, run 1, well a = 2.59e5; control promoter light, run 1, well b = 2.98e5; uninduced reporter light, run 1, well a = 18415; inactive.
mag (magro) scored induced reporter light, run 1, well a = 1.36e5; induced reporter light, run 1, well b = 1.33e5; control promoter light, run 1, well a = 87800; control promoter light, run 1, well b = 86530; uninduced reporter light, run 1, well a = 10138; inactive.
Dro (Drosocin) gave induced reporter light, run 1, well a = 1.05e5; induced reporter light, run 1, well b = 87590; control promoter light, run 1, well a = 1.30e5; control promoter light, run 1, well b = 1.08e5; uninduced reporter light, run 1, well a = 9430; inactive.
Silencing of wapl (wings apart-like) resulted in: induced reporter light, run 1, well a = 1.63e5; induced reporter light, run 1, well b = 1.49e5; control promoter light, run 1, well a = 2.09e5; control promoter light, run 1, well b = 1.93e5; uninduced reporter light, run 1, well a = 11192; inactive.
Silencing of CG14671 gave: induced reporter light, run 1, well a = 82615; induced reporter light, run 1, well b = 1.03e5; control promoter light, run 1, well a = 99895; control promoter light, run 1, well b = 92025; uninduced reporter light, run 1, well a = 6305; inactive.
Dyro (Dpt-YFP repressor by overexpression) showed induced reporter light, run 1, well a = 56050; induced reporter light, run 1, well b = 45800; control promoter light, run 1, well a = 36030; control promoter light, run 1, well b = 46990; uninduced reporter light, run 1, well a = 5250; inactive.
With knock-down of Ir52d (Ionotropic receptor 52d), the record shows induced reporter light, run 1, well a = 83165; induced reporter light, run 1, well b = 88465; control promoter light, run 1, well a = 1.24e5; control promoter light, run 1, well b = 1.36e5; uninduced reporter light, run 1, well a = 7590; inactive.
CG31551 #1 scored induced reporter light, run 1, well a = 1.22e5; induced reporter light, run 1, well b = 1.32e5; control promoter light, run 1, well a = 88915; control promoter light, run 1, well b = 76980; uninduced reporter light, run 1, well a = 10475; inactive.
After knock-down of CG31551 #2, the screen gave inactive.

Reformatted: 2 of the entries above.
Dyro (Dpt-YFP repressor by overexpression)
- induced reporter light, run 1, well a: 56050
- induced reporter light, run 1, well b: 45800
- control promoter light, run 1, well a: 36030
- control promoter light, run 1, well b: 46990
- uninduced reporter light, run 1, well a: 5250
- call: inactive

Ir52d (Ionotropic receptor 52d)
- induced reporter light, run 1, well a: 83165
- induced reporter light, run 1, well b: 88465
- control promoter light, run 1, well a: 1.24e5
- control promoter light, run 1, well b: 1.36e5
- uninduced reporter light, run 1, well a: 7590
- call: inactive

Next entries:
Knock-down of CG14760 came out at: induced reporter light, run 1, well a = 1.90e5; induced reporter light, run 1, well b = 1.68e5; control promoter light, run 1, well a = 1.92e5; control promoter light, run 1, well b = 1.75e5; uninduced reporter light, run 1, well a = 17460; inactive.
With knock-down of CG31211 #1, the record shows induced reporter light, run 1, well a = 1.14e5; induced reporter light, run 1, well b = 1.12e5; control promoter light, run 1, well a = 89785; control promoter light, run 1, well b = 82770; uninduced reporter light, run 1, well a = 8300; inactive.
For CG31211 #2 the deposit lists induced reporter light, run 1, well a = 61300; induced reporter light, run 1, well b = 65970; control promoter light, run 1, well a = 63630; control promoter light, run 1, well b = 52620; uninduced reporter light, run 1, well a = 3635; inactive.
For phr (photorepair), the entry reads induced reporter light, run 1, well a = 2.96e5; induced reporter light, run 1, well b = 2.35e5; control promoter light, run 1, well a = 3.06e5; control promoter light, run 1, well b = 2.76e5; uninduced reporter light, run 1, well a = 27970; inactive.
With knock-down of Rbp1-like, the record shows induced reporter light, run 1, well a = 1.48e5; induced reporter light, run 1, well b = 1.31e5; control promoter light, run 1, well a = 2.54e5; control promoter light, run 1, well b = 2.41e5; uninduced reporter light, run 1, well a = 11105; inactive.
For rad (retired record) #1 the deposit lists induced reporter light, run 1, well a = 1.30e5; induced reporter light, run 1, well b = 1.16e5; control promoter light, run 1, well a = 2.55e5; control promoter light, run 1, well b = 1.71e5; uninduced reporter light, run 1, well a = 8278; inactive.
Against rad (retired record) #2 the deposit lists inactive.
With knock-down of CG7579, the screen gave induced reporter light, run 1, well a = 1.75e5; induced reporter light, run 1, well b = 1.71e5; control promoter light, run 1, well a = 2.01e5; control promoter light, run 1, well b = 1.73e5; uninduced reporter light, run 1, well a = 7610; inactive.
